Test results from patent publication US20240058392A1, “COMPOSITION COMPRISING SEA CUCUMBER GENITAL GLAND EXTRACT, COMPOUND DERIVED FROM SEA CUCUMBER OVARY EXTRACT, AND USE THEREOF” (BIOINFORMATICS & MOLECULAR DESIGN RESEARCH CENTER, priority 2020, published 2024).
Some entries share one result that the patent states for a list of compounds.

Tests used:
[1] = tested on: 3T3-L1 cells; test: 3T3-L1 cell viability of single compounds separated from sea cucumber ovary extract; settings: 2.5 μg/ml
[2] = tested on: 3T3-L1 cells; test: Oil red O staining, single compounds of sea cucumber ovary extract; type: cell-based; settings: 2.5, 5 μg/ml with differentiation medium for 48 hours
Experimental: The differentiation-completed 3T3-L1 cells were fixed with 4% formaldehyde for 1 hour, and then fats were stained using a 0.5% Oil red O staining solution to confirm the degree of differentiation. For quantitative analysis of adipose differentiation, the dye stained in the cells was dissolved with 100% isopropyl alcohol and the absorbance was measured at 500 nm.
In order to investigate the effect on adipose differentiation of the 3T3-L1 cells of the single compound in the sea cucumber ovary extract, a total 8 of compounds were treated with a differentiation medium at a concentration of 2.5 and 5 μg/ml for 48 hours.

| Structure (SMILES) | cell viability [1] | fat accumulation (Oil red O staining) [2] |
| --- | --- | --- |
| C=C(C)CCC[C@](C)(O)[C@@H]1[C@@H]2CC3(C)C4=CCC5C(C)(C)[C@@H](O[C@@H]6OCC(O[C@@H]7OC(CO)C(O)[C@H](O)C7O)[C@H](O)C6O[C@@H]6OC(C)C(O[C@@H]7OC(CO)C(O)[C@H](O[C@@H]8OC(CO)C(O)[C@H](OC)C8O)C7O)[C@H](O)C6O)CC[C@]5(C)C4CCC13C(=O)O2 (some centres unmarked) [S3] | ≥ 80% | fat accumulation was significantly reduced |
| C=C(C)CCC[C@](C)(O)[C@@H]1[C@@H]2CC3(C)C4=CCC5C(C)(C)[C@@H](O[C@@H]6OCC(O[C@@H]7OC(CO)C(O)[C@H](O)C7O)[C@H](O)C6O[C@@H]6OC(C)C(O[C@@H]7OC(CO)C(O)[C@H](O)C7O)[C@H](O)C6O)CC[C@]5(C)C4CCC13C(=O)O2 (some centres unmarked) [S9] |  | fat accumulation was significantly reduced |
| C=C(C)CCC[C@@]1(C)OC(=O)C23CC=C4C(CCC5C(C)(C)[C@@H](O[C@@H]6OCC(O[C@@H]7OC(CO)C(O)[C@H](O[C@@H]8OC(CO)C(O)[C@H](OC)C8O)C7O)[C@H](O)C6O[C@@H]6OC(CO)C(O[C@@H]7OC(CO)C(O)[C@H](O[C@@H]8OC(CO)C(O)[C@H](O)C8O)C7O)[C@H](O)C6O)CC[C@]45C)C2(C)CC(=O)C31 (some centres unmarked) [S4] | ≥ 80% | fat accumulation was significantly reduced |
